The values that follow come from PMC11370900.

Chains of the proteins cited; added tags and fusions are not shown.
UniProt O95817: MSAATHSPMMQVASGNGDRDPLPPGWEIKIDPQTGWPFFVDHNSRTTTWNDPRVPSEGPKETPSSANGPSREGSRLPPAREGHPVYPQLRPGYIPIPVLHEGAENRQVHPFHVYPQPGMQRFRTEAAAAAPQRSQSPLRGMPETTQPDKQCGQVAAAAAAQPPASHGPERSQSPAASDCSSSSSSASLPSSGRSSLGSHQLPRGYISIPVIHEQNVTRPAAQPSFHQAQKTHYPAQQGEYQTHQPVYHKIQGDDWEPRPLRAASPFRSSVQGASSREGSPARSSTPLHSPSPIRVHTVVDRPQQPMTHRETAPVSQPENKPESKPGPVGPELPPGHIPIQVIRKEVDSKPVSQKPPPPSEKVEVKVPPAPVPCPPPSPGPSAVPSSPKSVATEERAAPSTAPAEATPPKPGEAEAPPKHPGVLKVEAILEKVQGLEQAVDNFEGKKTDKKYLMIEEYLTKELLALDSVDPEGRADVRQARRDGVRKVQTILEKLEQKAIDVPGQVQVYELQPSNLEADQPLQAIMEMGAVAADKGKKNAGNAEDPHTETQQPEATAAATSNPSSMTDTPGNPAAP

These are yes or no findings as the source states them, for the method shown. In cells and extracts the contact can be indirect. Some results given as binding are weak or reduced against the parent protein; the word gives no strength.

The target in the test is T1, heat shock protein B8 (HSPB8) (human) (UniProt Q9UJY1).
T1 sequence: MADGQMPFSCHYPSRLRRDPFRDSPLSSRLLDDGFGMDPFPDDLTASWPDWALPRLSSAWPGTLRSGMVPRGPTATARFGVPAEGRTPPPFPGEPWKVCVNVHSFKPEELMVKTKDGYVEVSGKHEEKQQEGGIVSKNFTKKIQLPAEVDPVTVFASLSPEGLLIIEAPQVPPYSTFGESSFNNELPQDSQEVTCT
As to the kind of experiment: co-IP; cells lysed in RIPA lysis buffer; antibody on Dynabeads Protein G mixed with the lysate overnight at 4°C; washed three times with lysis buffer; bound proteins detected by Western blotting.

As for “BCL2-associated athanogene 3 (BAG3) (from UniProt O95817 1-575)”, the binding entry is given as “binds”.
